Publication PMC4307248
No constants are given. Whether binding was seen depends on the method and setting. Binding seen in cells or lysates may run through a third protein. Some entries that bind do so weakly or less than the wild type. For some of these results: Tags and fused reporters may be left off the sequences shown. Blank lines part the entries; values can stand above or below the binder they belong to.

What was measured:
[1] = target: T1, MDMX, endogenous in A549-USP22 cells (human (endogenous in A549)) (UniProt O15151); assay: co-IP; A549-USP22 cell lysates immunoprecipitated with anti-Flag or anti-MDMX antibody; immunoblot with anti-Flag, anti-MDMX, anti-USP22; isotype control antibody and PBS as controls
T1 sequence: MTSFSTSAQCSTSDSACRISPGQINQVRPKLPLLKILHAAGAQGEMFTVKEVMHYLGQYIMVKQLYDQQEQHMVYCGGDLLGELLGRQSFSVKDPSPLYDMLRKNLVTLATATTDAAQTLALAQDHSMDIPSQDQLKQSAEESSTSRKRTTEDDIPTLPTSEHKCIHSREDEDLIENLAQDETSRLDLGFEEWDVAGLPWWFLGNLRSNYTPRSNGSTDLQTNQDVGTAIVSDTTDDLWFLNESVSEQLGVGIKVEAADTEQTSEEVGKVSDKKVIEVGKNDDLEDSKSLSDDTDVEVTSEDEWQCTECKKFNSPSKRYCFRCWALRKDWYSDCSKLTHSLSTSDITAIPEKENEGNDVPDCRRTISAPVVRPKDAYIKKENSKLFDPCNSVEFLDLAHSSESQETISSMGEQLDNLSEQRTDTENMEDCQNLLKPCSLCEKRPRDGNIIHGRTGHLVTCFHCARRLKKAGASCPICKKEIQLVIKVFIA

[2] = target: T2, MDMX, endogenous in NCl-H460 cells (human (endogenous in NCl-H460)) (UniProt O15151); assay: co-IP; NCl-H460 cell lysates immunoprecipitated with anti-USP22 or anti-MDMX antibody; immunoblot; isotype control antibody and PBS as controls
T2 sequence: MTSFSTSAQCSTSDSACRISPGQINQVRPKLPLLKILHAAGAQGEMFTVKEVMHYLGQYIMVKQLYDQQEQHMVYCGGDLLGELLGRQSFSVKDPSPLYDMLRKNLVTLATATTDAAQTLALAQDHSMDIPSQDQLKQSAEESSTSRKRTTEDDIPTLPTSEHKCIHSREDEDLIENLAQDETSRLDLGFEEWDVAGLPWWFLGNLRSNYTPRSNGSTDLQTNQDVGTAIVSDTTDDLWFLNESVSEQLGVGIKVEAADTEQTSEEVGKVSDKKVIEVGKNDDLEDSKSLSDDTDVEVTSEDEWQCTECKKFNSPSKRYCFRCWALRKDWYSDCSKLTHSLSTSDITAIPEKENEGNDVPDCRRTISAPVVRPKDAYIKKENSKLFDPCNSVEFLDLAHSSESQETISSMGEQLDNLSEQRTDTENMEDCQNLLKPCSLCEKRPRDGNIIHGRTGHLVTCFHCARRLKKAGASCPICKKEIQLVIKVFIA

[3] = target: T3, Flag-tagged USP22 (ubiquitin-specific protease 22) (human) (UniProt Q9UPT9); assay: co-IP; A549-USP22 cell lysates immunoprecipitated with anti-Flag or anti-MDMX antibody; immunoblot with anti-Flag, anti-MDMX, anti-USP22; isotype control antibody and PBS as controls
T3 sequence: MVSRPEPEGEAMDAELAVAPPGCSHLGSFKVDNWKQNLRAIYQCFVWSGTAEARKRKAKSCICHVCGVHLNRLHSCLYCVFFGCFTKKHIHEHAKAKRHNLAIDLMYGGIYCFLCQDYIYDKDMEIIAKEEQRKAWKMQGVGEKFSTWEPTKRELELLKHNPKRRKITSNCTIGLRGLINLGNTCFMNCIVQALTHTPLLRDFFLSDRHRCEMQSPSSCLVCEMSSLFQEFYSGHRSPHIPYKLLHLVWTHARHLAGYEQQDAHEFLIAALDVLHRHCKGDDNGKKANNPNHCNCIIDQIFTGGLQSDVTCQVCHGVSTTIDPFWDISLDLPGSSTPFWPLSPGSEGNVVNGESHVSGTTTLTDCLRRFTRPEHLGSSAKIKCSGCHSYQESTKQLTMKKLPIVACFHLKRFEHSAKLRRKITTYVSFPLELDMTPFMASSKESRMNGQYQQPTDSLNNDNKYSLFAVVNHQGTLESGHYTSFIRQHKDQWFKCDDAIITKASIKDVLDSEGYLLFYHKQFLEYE

[4] = target: T4, USP22 (ubiquitin-specific protease 22), endogenous in NCl-H460 cells (human (endogenous in NCl-H460)) (UniProt Q9UPT9); assay: co-IP; NCl-H460 cell lysates immunoprecipitated with anti-USP22 or anti-MDMX antibody; immunoblot; isotype control antibody and PBS as controls
T4 sequence: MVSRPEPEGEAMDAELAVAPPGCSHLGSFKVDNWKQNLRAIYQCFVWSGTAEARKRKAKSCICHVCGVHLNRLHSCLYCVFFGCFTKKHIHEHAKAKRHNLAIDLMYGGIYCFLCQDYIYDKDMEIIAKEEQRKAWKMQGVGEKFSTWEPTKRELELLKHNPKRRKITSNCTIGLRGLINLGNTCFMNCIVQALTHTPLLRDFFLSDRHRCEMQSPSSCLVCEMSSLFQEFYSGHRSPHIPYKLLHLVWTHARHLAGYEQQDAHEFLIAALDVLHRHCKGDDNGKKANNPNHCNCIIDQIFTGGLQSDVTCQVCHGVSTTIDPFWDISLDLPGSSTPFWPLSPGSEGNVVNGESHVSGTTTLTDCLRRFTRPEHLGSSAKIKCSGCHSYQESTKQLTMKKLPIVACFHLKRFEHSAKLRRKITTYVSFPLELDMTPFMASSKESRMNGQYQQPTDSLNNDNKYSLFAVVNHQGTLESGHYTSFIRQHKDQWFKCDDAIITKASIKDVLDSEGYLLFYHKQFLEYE

binding [1]: binds
B1: Flag-tagged USP22 (ubiquitin-specific protease 22) (enzyme, UniProt Q9UPT9 1-525)
chain: MVSRPEPEGEAMDAELAVAPPGCSHLGSFKVDNWKQNLRAIYQCFVWSGTAEARKRKAKSCICHVCGVHLNRLHSCLYCVFFGCFTKKHIHEHAKAKRHNLAIDLMYGGIYCFLCQDYIYDKDMEIIAKEEQRKAWKMQGVGEKFSTWEPTKRELELLKHNPKRRKITSNCTIGLRGLINLGNTCFMNCIVQALTHTPLLRDFFLSDRHRCEMQSPSSCLVCEMSSLFQEFYSGHRSPHIPYKLLHLVWTHARHLAGYEQQDAHEFLIAALDVLHRHCKGDDNGKKANNPNHCNCIIDQIFTGGLQSDVTCQVCHGVSTTIDPFWDISLDLPGSSTPFWPLSPGSEGNVVNGESHVSGTTTLTDCLRRFTRPEHLGSSAKIKCSGCHSYQESTKQLTMKKLPIVACFHLKRFEHSAKLRRKITTYVSFPLELDMTPFMASSKESRMNGQYQQPTDSLNNDNKYSLFAVVNHQGTLESGHYTSFIRQHKDQWFKCDDAIITKASIKDVLDSEGYLLFYHKQFLEYE

binding [2]: binds
B2: USP22 (ubiquitin-specific protease 22), endogenous in NCl-H460 cells (enzyme, UniProt Q9UPT9 1-525)
chain: MVSRPEPEGEAMDAELAVAPPGCSHLGSFKVDNWKQNLRAIYQCFVWSGTAEARKRKAKSCICHVCGVHLNRLHSCLYCVFFGCFTKKHIHEHAKAKRHNLAIDLMYGGIYCFLCQDYIYDKDMEIIAKEEQRKAWKMQGVGEKFSTWEPTKRELELLKHNPKRRKITSNCTIGLRGLINLGNTCFMNCIVQALTHTPLLRDFFLSDRHRCEMQSPSSCLVCEMSSLFQEFYSGHRSPHIPYKLLHLVWTHARHLAGYEQQDAHEFLIAALDVLHRHCKGDDNGKKANNPNHCNCIIDQIFTGGLQSDVTCQVCHGVSTTIDPFWDISLDLPGSSTPFWPLSPGSEGNVVNGESHVSGTTTLTDCLRRFTRPEHLGSSAKIKCSGCHSYQESTKQLTMKKLPIVACFHLKRFEHSAKLRRKITTYVSFPLELDMTPFMASSKESRMNGQYQQPTDSLNNDNKYSLFAVVNHQGTLESGHYTSFIRQHKDQWFKCDDAIITKASIKDVLDSEGYLLFYHKQFLEYE

binding [3]: binds
B3: MDMX, endogenous in A549-USP22 cells (protein, UniProt O15151 1-490)
chain: MTSFSTSAQCSTSDSACRISPGQINQVRPKLPLLKILHAAGAQGEMFTVKEVMHYLGQYIMVKQLYDQQEQHMVYCGGDLLGELLGRQSFSVKDPSPLYDMLRKNLVTLATATTDAAQTLALAQDHSMDIPSQDQLKQSAEESSTSRKRTTEDDIPTLPTSEHKCIHSREDEDLIENLAQDETSRLDLGFEEWDVAGLPWWFLGNLRSNYTPRSNGSTDLQTNQDVGTAIVSDTTDDLWFLNESVSEQLGVGIKVEAADTEQTSEEVGKVSDKKVIEVGKNDDLEDSKSLSDDTDVEVTSEDEWQCTECKKFNSPSKRYCFRCWALRKDWYSDCSKLTHSLSTSDITAIPEKENEGNDVPDCRRTISAPVVRPKDAYIKKENSKLFDPCNSVEFLDLAHSSESQETISSMGEQLDNLSEQRTDTENMEDCQNLLKPCSLCEKRPRDGNIIHGRTGHLVTCFHCARRLKKAGASCPICKKEIQLVIKVFIA

binding [4]: binds
B4: MDMX, endogenous in NCl-H460 cells (protein, UniProt O15151 1-490)
chain: MTSFSTSAQCSTSDSACRISPGQINQVRPKLPLLKILHAAGAQGEMFTVKEVMHYLGQYIMVKQLYDQQEQHMVYCGGDLLGELLGRQSFSVKDPSPLYDMLRKNLVTLATATTDAAQTLALAQDHSMDIPSQDQLKQSAEESSTSRKRTTEDDIPTLPTSEHKCIHSREDEDLIENLAQDETSRLDLGFEEWDVAGLPWWFLGNLRSNYTPRSNGSTDLQTNQDVGTAIVSDTTDDLWFLNESVSEQLGVGIKVEAADTEQTSEEVGKVSDKKVIEVGKNDDLEDSKSLSDDTDVEVTSEDEWQCTECKKFNSPSKRYCFRCWALRKDWYSDCSKLTHSLSTSDITAIPEKENEGNDVPDCRRTISAPVVRPKDAYIKKENSKLFDPCNSVEFLDLAHSSESQETISSMGEQLDNLSEQRTDTENMEDCQNLLKPCSLCEKRPRDGNIIHGRTGHLVTCFHCARRLKKAGASCPICKKEIQLVIKVFIA
